Our source for the binding values is article PMC12750601.

The chains behind the UniProt entries cited, without tags or fusion partners.
UniProt Q14145: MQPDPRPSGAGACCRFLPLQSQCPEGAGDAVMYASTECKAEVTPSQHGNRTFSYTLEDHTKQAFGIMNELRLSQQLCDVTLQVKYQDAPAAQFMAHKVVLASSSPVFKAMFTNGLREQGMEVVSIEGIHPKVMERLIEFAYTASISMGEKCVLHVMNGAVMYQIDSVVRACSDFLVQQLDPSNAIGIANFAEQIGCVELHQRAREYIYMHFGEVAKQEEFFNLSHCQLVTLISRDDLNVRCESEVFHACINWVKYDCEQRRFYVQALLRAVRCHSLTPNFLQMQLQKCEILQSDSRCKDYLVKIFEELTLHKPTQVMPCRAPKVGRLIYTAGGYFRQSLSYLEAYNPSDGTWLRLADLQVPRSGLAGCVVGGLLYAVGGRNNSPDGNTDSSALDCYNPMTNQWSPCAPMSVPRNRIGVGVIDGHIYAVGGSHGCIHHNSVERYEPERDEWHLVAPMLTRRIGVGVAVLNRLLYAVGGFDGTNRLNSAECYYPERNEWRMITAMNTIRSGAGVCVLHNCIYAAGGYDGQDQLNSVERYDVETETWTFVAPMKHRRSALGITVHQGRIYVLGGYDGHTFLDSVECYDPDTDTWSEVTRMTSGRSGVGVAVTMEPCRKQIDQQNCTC

Results are given in words; binding and its absence hold for the method and conditions named. In cells and extracts the contact can be indirect. Some entries that bind do so weakly or less than the wild type.

The target in this assay is T1, Tribbles homolog 2 (human (endogenous in HepG2)) (UniProt Q92519).
T1 sequence: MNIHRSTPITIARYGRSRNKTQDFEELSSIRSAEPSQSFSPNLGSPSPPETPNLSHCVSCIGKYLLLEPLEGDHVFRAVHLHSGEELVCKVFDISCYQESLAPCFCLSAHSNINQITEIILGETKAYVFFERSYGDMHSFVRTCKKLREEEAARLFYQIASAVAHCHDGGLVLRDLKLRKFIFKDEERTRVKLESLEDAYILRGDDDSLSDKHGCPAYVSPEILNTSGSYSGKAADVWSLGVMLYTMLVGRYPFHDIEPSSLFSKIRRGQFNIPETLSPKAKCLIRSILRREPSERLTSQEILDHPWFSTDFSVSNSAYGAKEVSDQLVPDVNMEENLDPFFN
As to the kind of experiment: co-IP; IP of TRIB2 (anti-TRIB2 1:200, protein A/G magnetic beads, overnight at 4 °C, five washes with cell lysis buffer) from HepG2 lysate; immunoblot for KEAP1. Background: In western blotting, separated proteins are transferred to a membrane and probed.

Regarding KEAP1 (from UniProt Q14145 1-624), the binding entry was “binds”.
